# Reference: PubChem BioAssay AID2685 (National Center for Advancing Translational Sciences (NCATS), 2010)
# The other results are listed elsewhere or left out. Shown are side measurements of this screen, not its main read-out; they come without a call. The list favours compounds with an active or inconclusive main result. The note in brackets gives the kind of curve behind each potency; many fits are weak.
# Test: qHTS Assay for Lipid Storage Modulators in Drosophila S3 Cells;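 on cell number change: cells counted by Cell Tracker Red CMTPX staining in the red channel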
# Settings: BODIPY lipid droplet fluorescence, 18-24 h; for cell number change: measured here: cell count max response, cells fed with added oleic acid
# Outline: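 Drosophila S3 cells got compounds at several concentrations plus oleic acid (400 uM solution). Laser-scanning cytometry with 488 nm excitation read lipid droplets at 500-530 nm and cells at 575-640 nm. Percent activity was relative to 20 uM Triacsin C.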
# [1] = measured here: lipid fluorescence (Fed channel) AC50, cells fed with added oleic acid
# [2] = measured here: cell number channel AC50, cells fed with added oleic acid
Structure (SMILES),cell number change,AC50 [1],AC50 [2]
COC(=O)C1=C(c2ccc(F)cc2OCc2ccccc2)C[C@@H]2CC[C@H]1N2C(=O)NCc1ccc(OC)c(OC)c1,13.9%,"0.00411 µM [rising, full curve, poor fit]",–
c1cncc(C2CCCCN2Cc2ccc3c(c2)OCO3)c1 (stereo unspecified),23%,"0.13 µM [rising, full curve, poor fit]",–
CCCCn1c(=O)c(C(=O)Nc2cccc(C)c2)c(O)c2ccccc21,14.6%,–,"0.259 µM [rising, full curve, poor fit]"
CC(=O)NC1C(OC(=O)Cc2ccccc2)OC(COC(C)=O)C(OC(C)=O)C1OC(C)=O (stereo unspecified),1.57%,–,–
COC(=O)C1=C(c2ccc(OCc3ccccc3)cc2)C[C@@H]2CC[C@H]1N2C(=O)NCc1ccccc1,-15.9%,"29.1 µM [falling, single point]",–
COC(=O)C1=C(c2cccc(OCc3ccccc3)c2)C[C@@H]2CC[C@H]1N2C(=O)NCc1ccc2[nH]ccc2c1,-55.1%,"6.51 µM [falling, single point]","20.6 µM [falling, single point]"
Cc1cccc(C)c1OP(N)(=O)OCC(F)(F)F (stereo unspecified),2.27%,–,–
CC1C(c2cccs2)=[N+]([O-])C(C)(C(=O)c2cccs2)N1O (stereo unspecified),-43%,"18.4 µM [falling, partial curve, poor fit]","29.1 µM [falling, partial curve, poor fit]"
O=C1Nc2ccc(Br)cc2C(c2ccccc2Cl)=NC1O (stereo unspecified),9.98%,–,–
O=C(c1cccc(C(F)(F)F)c1)C1CCCN(Cc2ncc[nH]2)C1 (stereo unspecified),26.8%,"0.0058 µM [rising, full curve, poor fit]",–
Cc1ccc(N=Nc2cc(C)ccc2N)cc1,–,–,"7.31 µM [falling, partial curve]"
CC(=O)N1CC(=O)Nc2ccc(C)cc2C1c1ccccc1 (stereo unspecified),-15.7%,"0.0517 µM [falling, full curve, poor fit]",–
CCC(C)n1c(O)c(/C=N/NC(=O)c2ccncc2)c(=O)[nH]c1=S (stereo unspecified),-22.2%,–,"0.13 µM [falling, full curve, poor fit]"
Cc1ccccc1NC(=O)Cc1nc(COC(=O)Cc2ccccc2)cs1,34.6%,"1.84 µM [rising, partial curve]","7.31 µM [rising, partial curve, poor fit]"
CCCCn1c(O)c(C=NC2CCCCC2N)c(=O)[nH]c1=O (stereo unspecified),12.5%,–,–
O=c1[nH]c(=S)n(Cc2ccc(F)cc2)c(O)c1C=NCc1cccnc1,–,"6.51 µM [rising, single point]","4.11 µM [rising, single point]"
CCC(=NCc1ccco1)c1c(O)[nH]c(=O)[nH]c1=O,-1.4%,"2.31 µM [falling, single point]",–
CCCCn1c(NS(=O)(=O)c2ccc(C)cc2)c(C(=O)OCC)c2nc3ccccc3nc21,21.4%,"1.46 µM [rising, partial curve]",–
CCN1CCN(c2cc(=O)n3ccccc3n2)CC1,-0.794%,–,–

# Shown tab-delimited: part of the list above
Structure (SMILES)	cell number change	AC50 [1]	AC50 [2]
Cc1ccccc1NC(=O)Cc1nc(COC(=O)Cc2ccccc2)cs1	34.6%	1.84 µM [rising, partial curve]	7.31 µM [rising, partial curve, poor fit]
CCCCn1c(O)c(C=NC2CCCCC2N)c(=O)[nH]c1=O (stereo unspecified)	12.5%	–	–

# More entries follow:

Structure (SMILES),cell number change,AC50 [1],AC50 [2]
CCN(CC)P(=O)(C(NC(=O)OC)C(F)(F)C(F)(F)C(F)(F)C(F)F)N(CC)CC (stereo unspecified),–,–,"29.1 µM [rising, single point]"
CCN(CC)CCCN=Cc1c(O)n(CCc2ccc(OC)c(OC)c2)c(=O)[nH]c1=O,–,"29.1 µM [falling, single point]","0.58 µM [falling, single point]"
COc1ccc2[nH]cc(CCN)c2c1,30.5%,"18.4 µM [rising, single point]","18.4 µM [rising, single point]"
COc1cc(/C=C2/C(=O)NC(=O)N(c3ccccc3)C2=O)ccc1O,31.7%,"0.103 µM [rising, full curve, poor fit]","29.1 µM [rising, single point]"
CCNC(=S)N(C)CCc1cc2c(c(OC)c1C=C1C(=O)N(C)C(=O)N(C)C1=O)OCO2,–,"6.51 µM [rising, single point]",–
CCC(=Nc1ccc(OC)cc1OC)c1c(O)[nH]c(=O)[nH]c1=O,-8.24%,"7.31 µM [rising, single point]",–
O=C(COc1ccc(Br)cc1)N1CCN(Cc2ccc3c(c2)OCO3)CC1,34.7%,"1.64 µM [rising, partial curve, poor fit]",–
Nc1ncc([N+](=O)[O-])s1,-8.59%,"9.2 µM [rising, single point]",–
O=C(Cc1ccccc1)N1CCN(CC2CC3C=CC2C3)CC1 (stereo unspecified),23.5%,"4.11 µM [rising, full curve, poor fit]",–
CC(=O)CC(c1ccccc1[N+](=O)[O-])c1c(O)c2ccccc2oc1=O (stereo unspecified),-11.5%,"6.51 µM [falling, single point]",–
Clc1ccc(CNC2CN3CCC2CC3)cc1 (stereo unspecified),–,"32.6 µM [rising, single point]",–
COc1ccc2[nH]cc(CCNCc3cccnc3)c2c1,3.85%,"11.6 µM [rising, partial curve]",–
CCN(CC)C(=O)c1ccc(NC(=O)COc2ccccc2F)cc1,–,–,"0.651 µM [rising, single point]"
CCCc1[nH]nc2c1C1(C(=O)N(Cc3ccccc3)c3ccccc31)C(C(=O)OC)=C(N)O2 (stereo unspecified),-64.6%,"6.51 µM [falling, full curve]","0.00461 µM [falling, full curve, poor fit]"
C=CCn1c(O)c(/C=N/N2CCCCC2c2cccnc2)c(=O)[nH]c1=S (stereo unspecified),7.91%,"0.58 µM [falling, single point]","0.517 µM [falling, single point]"
O=c1[nH]cc(COCC(F)(F)C(F)(F)C(F)(F)F)c(=O)[nH]1,103%,"0.651 µM [rising, partial curve, poor fit]","16.4 µM [rising, partial curve]"
Cc1ccc(C2CC3CCC(C2)N3Cc2ccccc2F)cc1 (stereo unspecified),-8.07%,–,–
COc1ccc(-c2nn(CCC#N)cc2C(=O)O)cc1,-14%,"23.1 µM [falling, single point]",–
